One assay addresses HIGD1A (M72V) mutant. The assay is described as follows: co-IP; wild-type HIGD1A or HIGD1A-M72V after AA treatment; TFAM levels in the immunoprecipitates.
In assay [1] the target is Hypoxia-induced gene domain protein-1a (HIGD1A) (human (endogenous in HK-2)). The assay is described as follows: co-IP; immunoprecipitation of HIGD1A or control IgG from HK-2 cells treated with PBS or AA (100 µM) for 24 h.

Results are given in words; binding and its absence hold for the method and conditions named. Binding seen in cells or lysates may run through a third protein. A result given as binding can be weak or reduced; the word gives no strength.

B1: mitochondrial transcription factor A (TFAM) (protein, UniProt Q00059 43-246)
chain: SSVLASCPKKPVSSYLRFSKEQLPIFKAQNPDAKTTELIRRIAQRWRELPDSKKKIYQDAYRAEWQVYKEEISRFKEQLTPSQIMSLEKEIMDKHLKRKAMTKKKELTLLGKPKRPRSAYNVYVAERFQEAKGDSPQEKLKTVKENWKNLSDSEKELYIQHAKEDETRYHNEMKSWEEQMIEVGRKDLLRRTIKKQRKYGAEEC
For the molecule B1, the binding result (in the assay with HIGD1A (M72V) mutant; in assay [1]) was “binds” each time.

For the origin of these results see paper PMC12850329.
